Consider 16 targets from the supplement of paper PMC10849652.

The chains behind the UniProt entries cited, without tags or fusion partners. Where a name states a change or a piece, a line headed by the entry shows the natural chain unless it says otherwise.
UniProt Q8WW59: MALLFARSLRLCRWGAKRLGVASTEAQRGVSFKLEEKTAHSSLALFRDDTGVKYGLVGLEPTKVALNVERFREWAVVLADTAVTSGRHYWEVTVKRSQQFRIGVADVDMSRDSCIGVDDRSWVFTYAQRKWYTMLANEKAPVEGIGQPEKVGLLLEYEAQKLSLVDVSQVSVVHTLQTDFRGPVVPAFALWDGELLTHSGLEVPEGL
UniProt Q04837: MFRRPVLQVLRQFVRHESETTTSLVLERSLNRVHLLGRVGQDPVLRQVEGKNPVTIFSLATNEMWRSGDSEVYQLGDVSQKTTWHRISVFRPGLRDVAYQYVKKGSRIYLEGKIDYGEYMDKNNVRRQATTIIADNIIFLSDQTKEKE
UniProt Q6ZRS2, whole entry, looked up: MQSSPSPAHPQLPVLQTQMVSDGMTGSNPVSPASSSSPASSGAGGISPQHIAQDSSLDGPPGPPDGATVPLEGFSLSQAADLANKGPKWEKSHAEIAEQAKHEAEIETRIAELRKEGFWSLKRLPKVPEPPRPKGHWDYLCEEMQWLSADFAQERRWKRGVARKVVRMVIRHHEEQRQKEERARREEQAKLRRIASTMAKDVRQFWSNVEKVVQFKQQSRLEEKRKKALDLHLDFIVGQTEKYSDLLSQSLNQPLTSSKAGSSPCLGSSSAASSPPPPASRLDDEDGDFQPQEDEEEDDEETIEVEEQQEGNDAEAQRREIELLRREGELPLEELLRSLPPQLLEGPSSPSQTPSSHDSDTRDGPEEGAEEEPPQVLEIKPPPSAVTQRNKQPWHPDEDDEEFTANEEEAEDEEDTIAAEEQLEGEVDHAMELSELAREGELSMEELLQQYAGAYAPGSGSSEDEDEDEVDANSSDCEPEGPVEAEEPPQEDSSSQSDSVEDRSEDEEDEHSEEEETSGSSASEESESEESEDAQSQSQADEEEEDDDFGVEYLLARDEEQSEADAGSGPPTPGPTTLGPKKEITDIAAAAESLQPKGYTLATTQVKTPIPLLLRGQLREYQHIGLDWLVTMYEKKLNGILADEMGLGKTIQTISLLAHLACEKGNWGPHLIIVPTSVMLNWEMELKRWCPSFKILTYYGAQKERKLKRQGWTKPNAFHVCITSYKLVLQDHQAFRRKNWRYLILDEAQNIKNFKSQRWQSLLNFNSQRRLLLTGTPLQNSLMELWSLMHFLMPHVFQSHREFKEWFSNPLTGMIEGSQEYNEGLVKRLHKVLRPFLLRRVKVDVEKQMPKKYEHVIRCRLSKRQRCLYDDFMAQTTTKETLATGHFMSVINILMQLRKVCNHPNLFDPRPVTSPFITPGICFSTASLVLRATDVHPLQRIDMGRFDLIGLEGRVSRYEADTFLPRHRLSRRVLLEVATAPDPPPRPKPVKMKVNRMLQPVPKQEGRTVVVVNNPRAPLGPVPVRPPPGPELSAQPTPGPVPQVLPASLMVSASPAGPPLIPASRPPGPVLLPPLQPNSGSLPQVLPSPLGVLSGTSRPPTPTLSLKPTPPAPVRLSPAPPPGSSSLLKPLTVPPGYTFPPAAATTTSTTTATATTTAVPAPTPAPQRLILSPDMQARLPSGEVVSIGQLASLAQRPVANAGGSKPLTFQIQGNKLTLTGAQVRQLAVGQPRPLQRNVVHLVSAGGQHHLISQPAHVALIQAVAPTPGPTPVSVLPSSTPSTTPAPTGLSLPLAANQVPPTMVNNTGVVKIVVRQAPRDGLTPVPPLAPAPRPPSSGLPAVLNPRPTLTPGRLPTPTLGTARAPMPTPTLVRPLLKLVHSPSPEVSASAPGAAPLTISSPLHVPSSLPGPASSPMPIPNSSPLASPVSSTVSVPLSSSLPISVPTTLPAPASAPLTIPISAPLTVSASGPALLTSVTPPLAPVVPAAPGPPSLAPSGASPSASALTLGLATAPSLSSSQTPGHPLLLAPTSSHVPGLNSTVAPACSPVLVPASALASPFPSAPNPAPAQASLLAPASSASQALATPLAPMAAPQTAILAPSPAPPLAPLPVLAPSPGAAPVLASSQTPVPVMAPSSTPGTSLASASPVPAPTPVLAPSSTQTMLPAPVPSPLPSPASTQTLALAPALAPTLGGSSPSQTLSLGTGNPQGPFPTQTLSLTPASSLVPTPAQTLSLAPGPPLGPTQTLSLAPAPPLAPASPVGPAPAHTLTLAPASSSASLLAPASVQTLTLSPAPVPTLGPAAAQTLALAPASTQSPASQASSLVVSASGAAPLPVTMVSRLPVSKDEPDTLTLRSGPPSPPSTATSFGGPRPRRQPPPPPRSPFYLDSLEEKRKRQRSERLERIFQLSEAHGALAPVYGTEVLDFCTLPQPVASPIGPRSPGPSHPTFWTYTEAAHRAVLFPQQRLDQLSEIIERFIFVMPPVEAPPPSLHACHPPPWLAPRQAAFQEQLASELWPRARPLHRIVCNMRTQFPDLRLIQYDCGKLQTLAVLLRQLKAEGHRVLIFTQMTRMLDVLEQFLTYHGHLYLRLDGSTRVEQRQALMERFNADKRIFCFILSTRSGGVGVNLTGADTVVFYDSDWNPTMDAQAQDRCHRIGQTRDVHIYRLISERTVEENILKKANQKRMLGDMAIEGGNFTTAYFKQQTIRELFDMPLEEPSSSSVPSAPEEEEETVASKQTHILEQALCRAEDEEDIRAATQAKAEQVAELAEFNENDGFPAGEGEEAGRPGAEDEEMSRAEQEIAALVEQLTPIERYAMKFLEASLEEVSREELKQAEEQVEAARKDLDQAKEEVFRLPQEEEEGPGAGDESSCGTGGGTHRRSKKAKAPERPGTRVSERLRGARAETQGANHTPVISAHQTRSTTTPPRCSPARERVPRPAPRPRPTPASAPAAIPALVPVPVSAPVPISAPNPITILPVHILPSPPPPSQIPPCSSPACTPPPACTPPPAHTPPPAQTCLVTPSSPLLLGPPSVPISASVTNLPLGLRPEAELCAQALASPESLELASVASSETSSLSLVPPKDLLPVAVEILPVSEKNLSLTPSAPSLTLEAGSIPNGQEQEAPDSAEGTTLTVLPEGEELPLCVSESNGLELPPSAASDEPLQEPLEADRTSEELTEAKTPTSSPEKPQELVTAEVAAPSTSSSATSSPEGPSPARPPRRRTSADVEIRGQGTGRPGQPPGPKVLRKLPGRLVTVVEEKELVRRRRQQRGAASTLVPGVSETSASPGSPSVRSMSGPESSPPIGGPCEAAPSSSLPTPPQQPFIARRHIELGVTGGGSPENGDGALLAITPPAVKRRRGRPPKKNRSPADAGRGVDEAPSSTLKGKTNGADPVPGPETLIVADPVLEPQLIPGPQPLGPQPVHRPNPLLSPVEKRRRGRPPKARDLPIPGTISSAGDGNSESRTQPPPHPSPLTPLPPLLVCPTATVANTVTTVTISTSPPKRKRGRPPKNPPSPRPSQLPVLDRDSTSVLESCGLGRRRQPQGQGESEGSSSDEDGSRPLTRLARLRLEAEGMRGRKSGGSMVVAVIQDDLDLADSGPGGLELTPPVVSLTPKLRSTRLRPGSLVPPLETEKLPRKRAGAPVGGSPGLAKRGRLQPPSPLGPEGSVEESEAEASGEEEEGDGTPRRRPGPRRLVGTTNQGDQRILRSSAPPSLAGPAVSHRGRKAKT
UniProt O43805: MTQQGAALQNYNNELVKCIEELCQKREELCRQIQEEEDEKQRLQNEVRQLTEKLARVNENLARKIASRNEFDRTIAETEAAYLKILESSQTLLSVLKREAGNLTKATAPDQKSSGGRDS
UniProt O76094: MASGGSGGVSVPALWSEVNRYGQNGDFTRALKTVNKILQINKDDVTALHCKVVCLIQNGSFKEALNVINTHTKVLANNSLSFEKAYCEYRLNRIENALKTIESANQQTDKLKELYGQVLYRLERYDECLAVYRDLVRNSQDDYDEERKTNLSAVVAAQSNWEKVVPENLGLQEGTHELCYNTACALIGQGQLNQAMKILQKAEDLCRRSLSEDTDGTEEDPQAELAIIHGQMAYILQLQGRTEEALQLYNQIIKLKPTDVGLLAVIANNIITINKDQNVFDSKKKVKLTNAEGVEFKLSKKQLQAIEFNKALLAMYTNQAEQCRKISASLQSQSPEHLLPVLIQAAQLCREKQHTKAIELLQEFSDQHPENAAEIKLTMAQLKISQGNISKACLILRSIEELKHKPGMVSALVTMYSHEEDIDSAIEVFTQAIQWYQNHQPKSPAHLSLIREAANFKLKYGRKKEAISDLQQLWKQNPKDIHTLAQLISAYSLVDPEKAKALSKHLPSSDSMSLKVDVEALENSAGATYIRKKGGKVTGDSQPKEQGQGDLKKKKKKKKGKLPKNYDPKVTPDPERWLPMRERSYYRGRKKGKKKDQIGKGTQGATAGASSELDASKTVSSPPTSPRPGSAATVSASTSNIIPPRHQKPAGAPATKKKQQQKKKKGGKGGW
UniProt Q9UBP0: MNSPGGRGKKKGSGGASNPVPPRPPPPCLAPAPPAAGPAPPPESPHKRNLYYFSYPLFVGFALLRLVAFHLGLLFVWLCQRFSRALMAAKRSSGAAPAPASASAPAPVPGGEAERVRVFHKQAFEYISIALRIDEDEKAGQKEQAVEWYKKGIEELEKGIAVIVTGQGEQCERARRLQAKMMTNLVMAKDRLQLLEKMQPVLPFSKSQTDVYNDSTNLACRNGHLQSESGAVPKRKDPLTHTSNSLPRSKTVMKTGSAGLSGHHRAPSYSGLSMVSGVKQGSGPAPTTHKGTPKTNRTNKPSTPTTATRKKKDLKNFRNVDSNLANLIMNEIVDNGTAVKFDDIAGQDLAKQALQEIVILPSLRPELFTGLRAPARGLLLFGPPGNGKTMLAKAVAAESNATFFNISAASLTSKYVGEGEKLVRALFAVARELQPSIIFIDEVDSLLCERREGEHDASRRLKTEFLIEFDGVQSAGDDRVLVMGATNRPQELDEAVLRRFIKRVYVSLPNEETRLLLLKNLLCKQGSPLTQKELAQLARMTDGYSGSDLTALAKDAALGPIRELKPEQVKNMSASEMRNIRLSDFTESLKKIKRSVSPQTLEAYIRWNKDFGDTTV
UniProt Q9NZD8: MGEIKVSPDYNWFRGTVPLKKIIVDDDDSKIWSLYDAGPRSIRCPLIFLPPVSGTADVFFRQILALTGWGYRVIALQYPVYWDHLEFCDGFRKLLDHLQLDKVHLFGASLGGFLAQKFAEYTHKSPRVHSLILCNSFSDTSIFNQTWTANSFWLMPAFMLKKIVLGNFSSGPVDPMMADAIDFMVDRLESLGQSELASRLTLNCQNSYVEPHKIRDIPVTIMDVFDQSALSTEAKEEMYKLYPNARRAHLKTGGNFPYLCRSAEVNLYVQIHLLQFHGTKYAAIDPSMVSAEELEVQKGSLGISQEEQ
UniProt Q9GZT4: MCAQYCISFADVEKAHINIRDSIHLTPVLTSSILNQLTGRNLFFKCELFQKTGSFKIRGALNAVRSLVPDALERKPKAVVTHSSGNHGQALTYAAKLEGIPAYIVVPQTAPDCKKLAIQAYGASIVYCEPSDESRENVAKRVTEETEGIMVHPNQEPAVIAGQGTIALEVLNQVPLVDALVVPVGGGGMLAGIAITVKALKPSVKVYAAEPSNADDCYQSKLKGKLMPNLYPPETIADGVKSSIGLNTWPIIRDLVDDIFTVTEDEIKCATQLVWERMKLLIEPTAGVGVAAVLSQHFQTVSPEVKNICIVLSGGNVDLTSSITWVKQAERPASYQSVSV
UniProt P43307: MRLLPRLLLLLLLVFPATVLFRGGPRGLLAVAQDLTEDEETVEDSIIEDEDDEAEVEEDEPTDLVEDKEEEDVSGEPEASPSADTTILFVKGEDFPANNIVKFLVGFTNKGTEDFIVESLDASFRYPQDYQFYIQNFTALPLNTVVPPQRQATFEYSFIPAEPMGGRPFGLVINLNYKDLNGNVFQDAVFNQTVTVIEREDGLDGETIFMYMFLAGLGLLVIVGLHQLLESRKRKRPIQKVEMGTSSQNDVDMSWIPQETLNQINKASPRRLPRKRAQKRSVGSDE
UniProt P11831: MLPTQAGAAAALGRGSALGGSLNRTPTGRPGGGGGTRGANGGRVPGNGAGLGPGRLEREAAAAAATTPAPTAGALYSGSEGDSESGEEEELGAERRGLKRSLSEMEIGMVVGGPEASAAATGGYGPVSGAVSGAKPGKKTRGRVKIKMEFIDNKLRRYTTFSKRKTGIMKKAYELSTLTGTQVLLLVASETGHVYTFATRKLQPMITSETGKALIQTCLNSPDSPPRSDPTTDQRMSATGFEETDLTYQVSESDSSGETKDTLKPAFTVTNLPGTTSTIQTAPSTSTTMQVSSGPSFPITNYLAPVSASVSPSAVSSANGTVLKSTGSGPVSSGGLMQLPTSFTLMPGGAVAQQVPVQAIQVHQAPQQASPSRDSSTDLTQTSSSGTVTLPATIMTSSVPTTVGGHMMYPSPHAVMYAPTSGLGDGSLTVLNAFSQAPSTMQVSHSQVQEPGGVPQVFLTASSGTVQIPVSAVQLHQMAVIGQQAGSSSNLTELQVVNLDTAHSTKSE

The other results are listed elsewhere or left out.

Compound in this test: Cc1cccc(CC(=O)N2CCc3c2ccc(-c2cn(C)c4ncnc(N)c24)c3F)n1
Put plainly: log2 fold change, soluble protein after heating vs DMSO (PISA); higher = thermal stabilisation; K562 lysate, 10 uM; active = over 0.2 and 3.5 SD of the protein, either way, in both replicates (recomputed). The method, boiled down:
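K562 pellets were dounce-homogenised in PBS pH 7.4 with 1 mM MgCl2, and the crude extract at 1 mg/mL protein was treated with 10 μM compound for 30 min. Aliquots were heated for 3 min across 48°C-58°C, pooled, and brought to 0.5% NP-40 at 4°C; soluble protein was the supernatant after 21,000xg for 90 min. Soluble protein was quantified by TMTpro 16plex LC-MS/MS with channel sums equalised, and reported as log2 fold change in thermal stability against DMSO controls, with values from duplicates.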
SRP68 (UniProt Q9UHB9): the log2 fold change is inactive: -0.115.

Regarding SPCS3 (UniProt P61009), the log2 fold change is inactive: -0.031.

As for SPRYD4 (UniProt Q8WW59), the log2 fold change was inactive: 0.086.

For the target SSBP1 (UniProt Q04837), the log2 fold change is inactive: -0.001.

Take SRBD1 (UniProt Q8N5C6): the log2 fold change was inactive: 0.13.

In the case of ST3GAL2 (UniProt Q16842), the log2 fold change is inactive: 0.191.

SRCAP (UniProt Q6ZRS2): the log2 fold change is inactive: -0.003.

Regarding SSNA1 (UniProt O43805), the log2 fold change was inactive: -0.034.

As to SRP72 (UniProt O76094), the log2 fold change was inactive: -0.009.

Turning to SPAST (UniProt Q9UBP0), the log2 fold change was inactive: 0.016.

In the case of SPG21 (UniProt Q9NZD8), the log2 fold change is inactive: 0.149.

SRRM2 (UniProt Q9UQ35): the log2 fold change is inactive: 0.029.

SRR (UniProt Q9GZT4): the log2 fold change was inactive: -0.047.

Turning to SPECC1L (UniProt Q69YQ0), the log2 fold change was inactive: -0.011.

Consider SSR1 (UniProt P43307), for which the log2 fold change is inactive: 0.081.

With SRF (UniProt P11831), the log2 fold change is inactive: -0.198.
